These results are taken from article PMC7433185.

By UniProt entry, the sequences of proteins in these tests, tags left out.
UniProt Q99NH2: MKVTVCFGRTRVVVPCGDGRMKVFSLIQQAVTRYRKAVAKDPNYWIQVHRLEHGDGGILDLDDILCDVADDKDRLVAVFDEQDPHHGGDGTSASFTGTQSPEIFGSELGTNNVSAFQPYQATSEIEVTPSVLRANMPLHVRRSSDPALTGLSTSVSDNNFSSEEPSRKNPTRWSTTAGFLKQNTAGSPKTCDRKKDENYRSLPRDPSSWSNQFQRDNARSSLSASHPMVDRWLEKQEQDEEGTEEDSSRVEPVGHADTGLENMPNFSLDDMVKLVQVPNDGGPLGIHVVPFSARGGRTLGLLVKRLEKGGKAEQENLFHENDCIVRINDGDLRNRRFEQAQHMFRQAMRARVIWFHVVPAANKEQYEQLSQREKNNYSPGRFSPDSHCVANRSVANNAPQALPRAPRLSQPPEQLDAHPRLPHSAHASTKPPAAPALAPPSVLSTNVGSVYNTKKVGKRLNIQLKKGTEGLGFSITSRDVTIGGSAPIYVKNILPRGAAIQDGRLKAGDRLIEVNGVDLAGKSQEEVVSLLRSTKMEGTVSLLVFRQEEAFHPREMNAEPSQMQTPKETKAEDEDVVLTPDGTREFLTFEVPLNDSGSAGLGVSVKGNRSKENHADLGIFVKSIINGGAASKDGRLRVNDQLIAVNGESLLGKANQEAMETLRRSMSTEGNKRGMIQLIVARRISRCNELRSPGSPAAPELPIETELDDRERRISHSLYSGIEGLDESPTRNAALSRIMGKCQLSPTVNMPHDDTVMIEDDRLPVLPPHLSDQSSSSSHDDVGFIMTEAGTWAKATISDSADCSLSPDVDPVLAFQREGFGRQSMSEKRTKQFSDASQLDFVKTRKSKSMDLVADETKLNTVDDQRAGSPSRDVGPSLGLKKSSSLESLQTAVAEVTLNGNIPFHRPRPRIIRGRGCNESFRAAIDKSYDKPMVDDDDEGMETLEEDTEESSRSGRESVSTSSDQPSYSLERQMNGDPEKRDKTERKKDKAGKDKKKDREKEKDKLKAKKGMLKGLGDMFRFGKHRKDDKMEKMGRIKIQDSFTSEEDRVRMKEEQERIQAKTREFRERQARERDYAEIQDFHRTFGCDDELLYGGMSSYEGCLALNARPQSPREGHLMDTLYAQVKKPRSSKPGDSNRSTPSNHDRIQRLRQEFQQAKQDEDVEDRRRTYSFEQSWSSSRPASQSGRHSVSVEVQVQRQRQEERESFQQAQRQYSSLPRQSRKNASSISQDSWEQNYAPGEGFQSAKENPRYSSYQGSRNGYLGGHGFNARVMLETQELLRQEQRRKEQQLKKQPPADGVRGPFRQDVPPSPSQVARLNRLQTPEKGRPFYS
UniProt O35346: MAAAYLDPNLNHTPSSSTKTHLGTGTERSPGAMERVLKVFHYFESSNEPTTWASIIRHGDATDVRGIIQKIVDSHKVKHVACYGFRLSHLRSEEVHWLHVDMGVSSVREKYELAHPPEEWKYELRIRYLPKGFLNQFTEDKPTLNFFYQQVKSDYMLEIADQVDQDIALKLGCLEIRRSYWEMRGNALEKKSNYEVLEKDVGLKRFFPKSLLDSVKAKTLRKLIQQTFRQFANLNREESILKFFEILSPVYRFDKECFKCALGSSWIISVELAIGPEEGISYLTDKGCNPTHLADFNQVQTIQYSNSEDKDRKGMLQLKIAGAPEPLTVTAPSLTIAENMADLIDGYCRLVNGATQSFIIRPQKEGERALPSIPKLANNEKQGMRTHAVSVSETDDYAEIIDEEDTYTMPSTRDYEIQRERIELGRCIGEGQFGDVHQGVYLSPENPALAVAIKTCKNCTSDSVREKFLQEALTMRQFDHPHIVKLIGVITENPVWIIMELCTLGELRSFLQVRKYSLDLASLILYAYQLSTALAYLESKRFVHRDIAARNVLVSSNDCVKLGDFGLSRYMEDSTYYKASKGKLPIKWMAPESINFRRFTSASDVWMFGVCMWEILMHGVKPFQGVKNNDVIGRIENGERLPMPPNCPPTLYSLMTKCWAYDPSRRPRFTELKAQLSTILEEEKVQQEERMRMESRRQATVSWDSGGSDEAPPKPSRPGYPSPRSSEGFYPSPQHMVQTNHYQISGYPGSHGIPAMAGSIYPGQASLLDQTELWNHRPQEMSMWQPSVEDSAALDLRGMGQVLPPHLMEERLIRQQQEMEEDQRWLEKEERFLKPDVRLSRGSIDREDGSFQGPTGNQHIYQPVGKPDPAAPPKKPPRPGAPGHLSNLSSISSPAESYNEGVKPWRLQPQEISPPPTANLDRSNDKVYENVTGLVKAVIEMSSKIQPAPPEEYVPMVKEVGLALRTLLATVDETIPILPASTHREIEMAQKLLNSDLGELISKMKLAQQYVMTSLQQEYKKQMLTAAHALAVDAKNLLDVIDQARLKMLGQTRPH

Results are given in words; binding and its absence hold for the method and conditions named. Binding seen in cells or lysates may run through a third protein. Some binding calls cover weakened binding; strength is not graded here. For some of these results: Tags and fused reporters may be left off the sequences shown.

The target in experiment [1] is T1, biotinylated Syndecan-4 cytoplasmic tail peptide (K K A P T N E F Y A).
T1 sequence (peptide, biotin (position not stated)): KKAPTNEFYA
Kind of experiment: pull-down; biotinylated peptides (15 ug/sample) on streptavidin-Sepharose beads incubated with lysates of DI TNC1 cells, non-stimulated or stimulated with FBS or Thy-1-Fc-Protein A; immunoblot for PAR-3 and Syntenin; only the target purified. On the technique in general: In western blotting, separated proteins are transferred to a membrane and probed.

The target of experiment [2] is T2, Syndecan-4 fused to an extracellular HA-tag, in DI TNC1 astrocytes (UniProt P31431).
T2 sequence: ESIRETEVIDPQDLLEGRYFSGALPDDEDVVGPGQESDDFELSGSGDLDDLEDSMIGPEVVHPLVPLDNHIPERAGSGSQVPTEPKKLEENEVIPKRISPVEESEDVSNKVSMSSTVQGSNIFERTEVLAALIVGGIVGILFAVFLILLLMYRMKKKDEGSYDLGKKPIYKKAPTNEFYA
Kind of experiment: co-IP; DI TNC1 cells transfected with Syndecan-4-HA, non-stimulated or treated with Thy-1-Fc-Protein A or TRAIL-R2-Fc-Protein A for 30 min; lysis in 20 mM Tris-HCl pH 7.4, 0.15 N NaCl, 0.5% NP-40; precipitation with mouse anti-HA; blots for PAR-3, FAK, Syndecan-4, Syntenin.

Experiment [3] concerns the target T2, Syndecan-4 fused to an extracellular HA-tag, in DI TNC1 astrocytes. As to the kind of experiment: proximity ligation; DI TNC1 cells transfected with Syndecan-4-HA or empty plasmid, non-stimulated or treated with Thy-1-Fc-Protein A or TRAIL-R2-Fc-Protein A for 30 min, fixed, permeabilized; DuoLink PLA with antibodies against PAR-3 and HA.
Experiment [4] has as its target PAR-3 of mouse embryonic fibroblasts (mouse (endogenous in MEFs)) (UniProt Q99NH2). As to the kind of experiment: co-IP; MEFs stably transfected with Syndecan-4-HA, non-stimulated or stimulated with Thy-1-Fc-Protein A (30 min) or 3% FBS (3 min); lysates precipitated with rabbit anti-PAR-3; blots for HA and Syntenin.

On to “Atypical protein kinase C isotype-specific interacting (PAR-3) (from UniProt Q9Z340-1 1-1337)”, for which the binding result in experiment [1], in experiment [2] and in experiment [3] was “binds” throughout.
“Focal Adhesion Kinase (from UniProt O35346 1-1055) (enzyme)”: in experiment [2], the binding result is “binds”.

B1: Syntenin-1 (protein, UniProt Q9JI92 1-300)
chain: MSLYPSLEDLKVDKVIQAQTASSANPASQAFFLNVVDSAAFPPGGNLYPKLYPELSQYMGLSLSEAEICENMPVVSGAPTQGQLVARPSSVNYMVAPVTGNDAGIRRAEIKQGIREVILCKDQDGKIGLRLKSVDNGIFVQLVQANSPASLVGLRFGDQVLQINGENCAGWSSDKAHKVLKQAFGEKITMTIRDRPFERTVTMHKDSSGHVGFIFKSGKITSIVKDSSAARNGLLTDHHICEINGQNVIGLKDAQIADILSTAGTVVTITIMPAFIFEHIIKRMAPSIMKSLMDHTIPEV
B1: the binding result in experiment [1] and in experiment [2] was “binds” throughout.

B2: Syndecan-4 fused to an extracellular HA-tag, in mouse embryonic fibroblasts (receptor, UniProt P31431 19-198)
chain: ESIRETEVIDPQDLLEGRYFSGALPDDEDVVGPGQESDDFELSGSGDLDDLEDSMIGPEVVHPLVPLDNHIPERAGSGSQVPTEPKKLEENEVIPKRISPVEESEDVSNKVSMSSTVQGSNIFERTEVLAALIVGGIVGILFAVFLILLLMYRMKKKDEGSYDLGKKPIYKKAPTNEFYA
Regarding B2, the binding entry in experiment [4] was “binds”.
